Measurements taken from article PMC10244377.
These are yes or no findings as the source states them, for the method shown. Binding seen in cells or lysates may run through a third protein. Some results given as binding are weak or reduced against the parent protein; the word gives no strength.

Protein sequences, listed by entry. Tags and fused reporters are not part of them.
UniProt Q9UKV8: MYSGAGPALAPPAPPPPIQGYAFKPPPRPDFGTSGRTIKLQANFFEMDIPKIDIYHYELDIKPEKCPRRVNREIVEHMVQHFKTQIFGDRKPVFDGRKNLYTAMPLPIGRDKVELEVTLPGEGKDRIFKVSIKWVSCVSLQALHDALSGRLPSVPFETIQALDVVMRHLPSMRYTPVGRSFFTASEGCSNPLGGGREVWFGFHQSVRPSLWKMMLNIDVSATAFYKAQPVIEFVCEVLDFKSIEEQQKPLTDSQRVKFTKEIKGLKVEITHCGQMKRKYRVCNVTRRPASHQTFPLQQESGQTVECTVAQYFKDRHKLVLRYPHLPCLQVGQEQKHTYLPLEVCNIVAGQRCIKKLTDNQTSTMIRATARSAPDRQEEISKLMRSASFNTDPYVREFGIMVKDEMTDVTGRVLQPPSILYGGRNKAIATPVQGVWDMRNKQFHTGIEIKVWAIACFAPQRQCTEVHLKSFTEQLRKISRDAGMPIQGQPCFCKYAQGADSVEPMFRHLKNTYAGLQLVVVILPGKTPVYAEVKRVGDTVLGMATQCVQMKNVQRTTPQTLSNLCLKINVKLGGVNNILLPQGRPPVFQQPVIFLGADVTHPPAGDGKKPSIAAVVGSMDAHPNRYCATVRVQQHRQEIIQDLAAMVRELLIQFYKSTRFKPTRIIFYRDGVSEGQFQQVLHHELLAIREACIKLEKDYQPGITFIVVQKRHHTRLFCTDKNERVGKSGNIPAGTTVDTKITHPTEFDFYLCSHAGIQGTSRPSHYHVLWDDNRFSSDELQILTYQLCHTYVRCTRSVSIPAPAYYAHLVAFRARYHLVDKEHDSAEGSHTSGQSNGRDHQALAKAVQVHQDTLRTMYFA

What was measured:
[1] = target: T1, LIS1 in the Benzonase-treated whole cell extract (Fig. 2f) (UniProt P43034); assay: co-IP; total whole cell extract treated with Benzonase to remove RNA; IP with the indicated antibodies, IgG as control; western blot
T1 sequence: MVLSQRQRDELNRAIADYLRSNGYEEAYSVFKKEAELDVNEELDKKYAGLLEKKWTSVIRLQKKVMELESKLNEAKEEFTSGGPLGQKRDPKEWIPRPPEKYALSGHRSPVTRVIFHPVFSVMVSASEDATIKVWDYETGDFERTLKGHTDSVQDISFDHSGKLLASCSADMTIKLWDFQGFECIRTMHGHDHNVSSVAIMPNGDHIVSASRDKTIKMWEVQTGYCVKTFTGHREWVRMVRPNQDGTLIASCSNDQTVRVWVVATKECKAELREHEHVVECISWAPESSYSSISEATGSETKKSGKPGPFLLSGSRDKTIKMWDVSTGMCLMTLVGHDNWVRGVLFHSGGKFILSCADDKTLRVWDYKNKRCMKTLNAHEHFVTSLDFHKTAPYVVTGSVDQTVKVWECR

[2] = target: T2, Lissencephaly-1 (LIS1), human, endogenous in hESCs (human (endogenous in hESCs)) (UniProt P43034); assay: co-IP; endogenous proteins, nuclear and cytoplasmic fractions of hESCs; IP with the indicated antibodies, IgG as control; western blot
T2 sequence: T1 sequence

Substance	binding [1]	binding [2]
AGO2 in the Benzonase-treated whole cell extract (Fig. 2f) (from UniProt Q9UKV8 1-859)	binds	
AGO2, human, endogenous in hESCs (from UniProt Q9UKV8 1-859)		binds
